{
  "source": "PubChem BioAssay (EPA / NIEHS)",
  "key": {"[1]": {"experiment": "VALA_TUBHUV_Antagonist_TubuleLength: VALA Sciences human Umbilical Vein Endothelial Tubule Formation (TUBHUV) Antagonism Assay (AID 2284325)", "in_short": "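Tubule length was imaged via CD31 immunofluorescence after a further 3-day compound exposure in 10 ng/ml VEGF, following 3-day pre-culture of HUVEC with HDF at 1:3. Vehicle 0.1% DMSO; suramin (100 uM) inhibition control.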"}, "[2]": {"experiment": "VALA_TUBIPS_Antagonist_CellCount: Viability Assessment in the VALA Sciences human iPS-derived Endothelial Tubule Formation (TUBIPS) Antagonism Assay (AID 2284335)"}, "[3]": {"experiment": "VALA_TUBHUV_Agonist_TubuleLength: VALA Sciences human Umbilical Vein Endothelial Tubule Formation (TUBHUV) Agonism Assay (AID 2284337)", "in_short": "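Tubule length quantified by CD31 immunofluorescence imaging after fixation. HUVEC-HDF co-cultures (1:3) pre-grown 3 days with 10 ng/ml VEGF, then dosed 3 days in VEGF medium; 0.1 % DMSO vehicle baseline.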"}, "[4]": {"experiment": "VALA_TUBIPS_Agonist_CellCount: Viability Assessment in the VALA Sciences human iPS-derived Endothelial Tubule Formation (TUBIPS) Agonism Assay (AID 2284338)"}, "[5]": {"experiment": "VALA_MIGHUV1_ScratchOnly_WoundArea: VALA Sciences human Umbilical Vein Endothelial Cell Migration (MIGHUV) Assay, Area of Scratch Wound Inhibited Recovery (AID 2284336)", "in_short": "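Wound area remaining after 24 h recovery imaged by Hoechst nuclear fluorescence in scratched HUVEC cultures, chemicals added within 30 min of scratching across a 6-point series. Gain of signal fitted against 0.1% DMSO; cytochalasin D positive control.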"}, "[6]": {"tested_on": "SRY-box transcription factor 2 (SOX2) Protein Expression, Deisenroth Lab, SOX2 (gene 6657)", "experiment": "CCTE_Deisenroth_DEVTOX-GLR_Endo_SOX2: CCTE's DevTox GLR-Endo Assay Evaluation of SRY-box transcription factor 2 (SOX2) Protein Expression, Deisenroth Lab (AID 2284412)", "in_short": "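Endpoint is percent SOX2-positive cells (SOX2+ count/total cells) minus 0.2% DMSO control, from high-content imaging of fixed, nuclear-stained RUES2-GLR cells. Dosing twice at 24 h intervals over 48 h differentiation, 1 nM–200 uM in 10 points.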"}, "[7]": {"tested_on": "SRY-box transcription factor 17 (SOX17) Protein Expression, Deisenroth Lab, SOX17 (gene 64321)", "experiment": "CCTE_Deisenroth_DEVTOX-GLR_Pluri_SOX17: CCTE's DevTox GLR-Pluri Assay Evaluation of SRY-box transcription factor 17 (SOX17) Protein Expression, Deisenroth Lab (AID 2284427)", "in_short": "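Seed cells 24 h; differentiate 48 h, dosing at 0 and 24 h (1 nM - 200 uM); fix, stain nuclei, image 5 fields per well; count SOX17+ cells over total cells and subtract 0.2% DMSO control.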"}, "SERPINA7 (gene 6906)": {"tested_on": "SERPINA7 (gene 6906)", "experiment": "CCTE_GLTED_hTBG: CCTE's human Thyroxine-binding Globulin (TBG) Inhibition Assay, Great Lakes Toxicology and Ecology Division (GLTED) Lab (AID 2284343);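 further: active chemicals lower fluorescence versus DMSO baseline by displacing probe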", "in_short": "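Cell-free displacement of the fluorescent probe ANSA from human thyroxine-binding globulin after 2 h exposure. Read-out at ex 380/em 475 nm; DMSO baseline.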"}, "[8]": {"experiment": "TAMU_PeakParms_SingleDonor1434_Asystole: Texas A&M University (TAMU) 1.5-hr Human Induced Pluripotent Stem Cell (iPSC)-derived Cardiomyocytes Calcium (Ca+2) Flux Assay for Cardiotoxicity: Asystole (quiescence of beating) (AID 2284328)", "in_short": "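Human iPSC-derived cardiomyocytes (donor 1434) were exposed to 0.2, 1, 10 and 100 uM compound in 0.5% DMSO for 90 min at 37C. Ca2+-dye fluorescence gave average peak frequency; POD is EC95, a 95% beat-rate drop versus DMSO.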"}, "[9]": {"experiment": "CCTE_Mundy_HCI_iCellGluta_NOG_NeuronCount: CCTE's Neurite Outgrowth Assay in iCellGluta cells for Neuron Count, Mundy Lab (AID 2284340);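 further: cells fixed about 48 h after compound addition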", "in_short": "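Neuron count read by automated high-content imaging of Hoechst 33342 and betaIII-tubulin/Alexa Fluor-488 labelling in human iPSC glutamatergic neurons. Activity fitted relative to DMSO.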"}, "[10]": {"experiment": "CCTE_Mundy_HCI_iCellGluta_NOG_NeuriteCount: CCTE's Neurite Outgrowth Assay in iCellGluta cells for Neurite Count, Mundy Lab (AID 2284342);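 further: chemical exposure about 48 hours starting 2 hours after plating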"}},
  "note": "This list was built around the results that the source calls inconclusive (neither active nor inactive); the mix of calls is not that of the screen. For part of these data: Where the call is inconclusive, the potency comes from a doubtful curve fit. The source made the active and inactive calls. How the source made its calls: active means hit-call score of the fitted dose curve at least 0.9, where 1 is the maximum; inconclusive means response in the unintended direction; inactive means score below 0.9.",
  "data": [
    {"compound": "O=C(Nc1ccc(Cl)cc1)Nc1ccc(Cl)c(Cl)c1", "values": [
      {"measurement": "AC50", "setting": "[1]", "result": "inconclusive: 0.00129 µM"},
      {"measurement": "AC50", "setting": "[2]", "result": "inconclusive: 50 µM"},
      {"measurement": "AC50", "setting": "[3]", "result": "inconclusive: 7.48 µM"},
      {"measurement": "AC50", "setting": "[4]", "result": "inconclusive: 50 µM"}
    ]},
    {"compound": "CCCCCCCCOC(=O)c1cc(O)c(O)c(O)c1", "values": [
      {"measurement": "AC50", "setting": "[1]", "result": "inconclusive: 9.92 µM"},
      {"measurement": "AC50", "setting": "[5]", "result": "inconclusive: 16.9 µM"},
      {"measurement": "AC50", "setting": "[3]", "result": "active: 50 µM"}
    ]},
    {"compound": "OCCO", "values": [
      {"measurement": "AC50", "setting": "[6]", "result": "inconclusive: 0.1 µM"},
      {"measurement": "AC50", "setting": "[7]", "result": "inconclusive: 100 µM"}
    ]},
    {"compound": "CCCCCc1ccc(N)cc1", "values": [
      {"measurement": "AC50", "setting": "SERPINA7 (gene 6906)", "result": "active: 29.9 µM"}
    ]},
    {"compound": "c1ccc2c(c1)-c1cccc3c1c-2cc1ccccc13", "values": [
      {"measurement": "AC50", "setting": "[8]", "result": "inconclusive: 50 µM"}
    ]},
    {"compound": "O=P(OC(CCl)CCl)(OC(CCl)CCl)OC(CCl)CCl", "values": [
      {"measurement": "AC50", "setting": "[1]", "result": "inconclusive: 50 µM"},
      {"measurement": "outcome", "setting": "[2]", "result": "inactive"},
      {"measurement": "AC50", "setting": "[5]", "result": "inconclusive: 0.308 µM"}
    ]},
    {"compound": "C[C@@H]1C[C@H]2[C@@H]3CCC4=CC(=O)C=C[C@]4(C)[C@@]3(F)[C@@H](O)C[C@]2(C)[C@@]1(O)C(=O)COP(=O)(O)O", "values": [
      {"measurement": "outcome", "setting": "[6]", "result": "inactive"}
    ]},
    {"compound": "O=C(CC(=O)C(F)(F)C(F)(F)C(F)(F)F)c1cccs1", "values": [
      {"measurement": "AC50", "setting": "[9]", "result": "inconclusive: 0.000942 µM"}
    ]},
    {"compound": "CSC(=O)c1cccc2nnsc12", "values": [
      {"measurement": "AC50", "setting": "[9]", "result": "inconclusive: 0.0235 µM"}
    ]},
    {"compound": "CS(=O)(=O)OCCCCOS(C)(=O)=O", "values": [
      {"measurement": "outcome", "setting": "[6]", "result": "inactive"}
    ]},
    {"compound": "CC1(C)S[C@@H]2[C@H](NC(=O)COc3ccccc3)C(=O)N2[C@H]1C(=O)O", "values": [
      {"measurement": "AC50", "setting": "[9]", "result": "inconclusive: 0.000395 µM"}
    ]},
    {"compound": "CC(C)(c1ccc(O)cc1)c1ccc(O)cc1", "values": [
      {"measurement": "AC50", "setting": "[1]", "result": "active: 75.1 µM"},
      {"measurement": "outcome", "setting": "[8]", "result": "inactive"},
      {"measurement": "AC50", "setting": "[3]", "result": "inconclusive: 16.2 µM"}
    ]},
    {"compound": "Cc1ccc(-c2cc(C(F)(F)F)nn2-c2ccc(S(N)(=O)=O)cc2)cc1", "values": [
      {"measurement": "AC50", "setting": "[1]", "result": "inconclusive: 50 µM"},
      {"measurement": "outcome", "setting": "[2]", "result": "inactive"},
      {"measurement": "outcome", "setting": "[5]", "result": "inactive"},
      {"measurement": "AC50", "setting": "[3]", "result": "inconclusive: 0.129 µM"},
      {"measurement": "outcome", "setting": "[4]", "result": "inactive"}
    ]},
    {"compound": "Nc1ncn([C@@H]2O[C@H](CO)[C@@H](O)[C@H]2O)c(=O)n1", "values": [
      {"measurement": "AC50", "setting": "[9]", "result": "inconclusive: 0.000907 µM"},
      {"measurement": "AC50", "setting": "[10]", "result": "inconclusive: 0.00253 µM"}
    ]},
    {"compound": "CC(C)C(=O)Nc1ccc([N+](=O)[O-])c(C(F)(F)F)c1", "values": [
      {"measurement": "outcome", "setting": "SERPINA7 (gene 6906)", "result": "inactive"}
    ]},
    {"compound": "O=c1c(O)c(-c2ccc(O)c(O)c2)oc2cc(O)cc(O)c12", "values": [
      {"measurement": "AC50", "setting": "[1]", "result": "inconclusive: 50 µM"},
      {"measurement": "outcome", "setting": "[2]", "result": "inactive"},
      {"measurement": "AC50", "setting": "[4]", "result": "inconclusive: 0.0685 µM"}
    ]}
  ]
}
